# Experimental data published in PubChem BioAssay AID493014 (National Center for Advancing Translational Sciences (NCATS), 2011).
# The list shows a part of the results. Further columns of the screen follow, without active or inactive calls. Compounds called inactive in the main read-out are mostly missing here. The note in brackets gives the kind of curve behind each potency; many fits are weak.
# Assay: qHTS Assay to Find Inhibitors of Chronic Active B-Cell Receptor Signaling
# Details: ABC-DLBCL IkBa-CBG/CBR reporter, luminescence ratio (green luciferase fused to IkBa over red control in TMD8 lymphoma cells), 4 h
# How it was run: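 TMD8 ABC-DLBCL cells carrying doxycycline-inducible green luciferase fused to IkappaBalpha plus unfused red luciferase were exposed to compounds (up to 46 uM) for 4 hrs at 37C. Activity came from the overlap-corrected green/red luminescence ratio.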
# [1] = measured here: CBR red luminescence, cell number
# [2] = measured here: IkBa-CBG green luminescence
Structure (SMILES),AC50 [1],AC50 [2]
[O-]/C(=C(\C(=S)Nc1cccc2ccccc12)[n+]1ccccc1)c1ccc2c(c1)OCCO2,"32.6 µM [falling, single point]",
Cc1cnc(CN2CCCC(C(=O)c3ccc4c5c(cccc35)CC4)C2)[nH]1 (stereo unspecified),"22.4 µM [falling, single point]",
COc1ccc(N2CCC(CNS(=O)(=O)c3cccc(C(F)(F)F)c3)C2)cc1 (stereo unspecified),"1.16 µM [falling, full curve]",
OCC#CCSc1nnc(-c2ccccc2Br)o1,"3.66 µM [falling, partial curve, poor fit]",
COc1cc(/C=N/N=C(/N)c2nonc2N)cc(Br)c1OCc1cccc(C)c1,"8.2 µM [rising, partial curve, poor fit]",
COc1ccc(Cl)cc1NC(=O)CSc1nc(=O)n(Cc2ccco2)c2c1CCC2,"35.5 µM [falling, single point]",
Cc1ccc(N2C(=O)CS/C2=C(\C(Cl)=C(Cl)Cl)[N+](=O)[O-])cc1,"0.206 µM [falling, full curve, poor fit]",
COc1cccc(-c2nn(C)c3sc(C(=O)N4CCOCC4)cc23)c1,"22.4 µM [falling, single point]",
Cc1ccc(C(=O)Nc2ccc(N3CCCC3)cc2)cc1,"0.316 µM [falling, full curve]",
O=C(O)c1ccc(-c2ccc(OS(=O)(=O)c3ccccc3F)cc2)cc1,"8.91 µM [falling, partial curve, poor fit]",
CC(C)(C)c1ccc(C(=O)Nc2ccc(Cl)cc2)cc1,"1.46 µM [rising, full curve]",
O=C(O)CSc1ncnc2sc3c(c12)CCC3,"11.2 µM [falling, partial curve, poor fit]",
CCCNC(=O)NS(=O)(=O)c1cnccc1Sc1ccc(Cl)cc1,"7.94 µM [rising, partial curve]",
Cc1cc(NC(=O)CCSc2ccccc2)ccc1Br,"1.64 µM [rising, partial curve, poor fit]",
COc1ccc(C(=O)Nn2c(SCC(=O)NCC3CCCO3)nc3ccccc3c2=O)cc1 (stereo unspecified),"2.59 µM [falling, full curve]",
COc1ccc(OC)c(NC(=O)C(=O)c2cn(CC(=O)N3CCCC3)c3ccccc23)c1,"0.708 µM [falling, full curve]",
Cc1cccc(CCNC(=O)c2oc3c(C)c(C)ccc3c2C)n1,"10 µM [falling, partial curve, poor fit]",
CCN(CC)C(=O)c1cc2cc([N+](=O)[O-])ccc2s1,"35.5 µM [rising, partial curve, poor fit]",
N#CC1=C(N)NC(SCC(=O)c2ccc(Br)cc2)=C(C#N)C12CCCCC2,"16.4 µM [falling, single point]",
COCCn1nnnc1C(c1ccccn1)N1CCN(c2cc(Cl)ccc2C)CC1 (stereo unspecified),"0.58 µM [falling, partial curve, poor fit]",
CCn1c(=O)c(C(=O)Nc2ncccc2O)c(O)c2ccccc21,"15.8 µM [falling, single point]",

# Rewritten as tab-separated lines: part of the list above
Structure (SMILES)	AC50 [1]	AC50 [2]
[O-]/C(=C(\C(=S)Nc1cccc2ccccc12)[n+]1ccccc1)c1ccc2c(c1)OCCO2	32.6 µM [falling, single point]	
Cc1cnc(CN2CCCC(C(=O)c3ccc4c5c(cccc35)CC4)C2)[nH]1 (stereo unspecified)	22.4 µM [falling, single point]	
COc1ccc(N2CCC(CNS(=O)(=O)c3cccc(C(F)(F)F)c3)C2)cc1 (stereo unspecified)	1.16 µM [falling, full curve]	

# Further structures.

Structure (SMILES),AC50 [1],AC50 [2]
Cc1cc(SCNC(=O)c2ccccc2)nc(C(C)C)n1,"35.5 µM [rising, single point]",
Cc1c(C(=O)NCc2ccccn2)sc2nc(-c3ccccc3)cn12,"1.84 µM [rising, partial curve, poor fit]",
COc1ccccc1Nc1nc(NCC2CCCO2)c2ccccc2n1 (stereo unspecified),"35.5 µM [falling, single point]",
COC(=O)C1=C(C)NC(C)=C(C(=O)OC)C1C(=O)OCC(=O)c1ccc(Br)cc1,"3.26 µM [rising, full curve, poor fit]","7.31 µM [falling, partial curve, poor fit]"
CC(=O)Nc1cccc(NS(=O)(=O)c2c(C)noc2C)c1,"7.31 µM [rising, single point]",
COc1cccc(NC(=O)CSc2nc(=O)n(Cc3cccnc3)c3c2CCC3)c1,"15.8 µM [falling, partial curve, poor fit]",
O=C(CCCn1cnc([N+](=O)[O-])n1)Nc1ccc(F)c(Cl)c1,"6.31 µM [falling, single point]",
O=C(O)[C@H](Cc1ccccc1)NC(=O)N1CCCCCC1,"0.316 µM [rising, partial curve, poor fit]",
COc1ccc(-n2nc(C(=O)NCC(=O)Nc3cccc(NC(C)=O)c3)c3ccccc3c2=O)cc1,"1.26 µM [rising, partial curve, poor fit]",
Cc1ccc(S(=O)(=O)CC(=O)Nc2ncc([N+](=O)[O-])s2)cc1,"5.01 µM [falling, full curve]",
CCC(C)NC(=O)c1cn(CC)c2cc(N3CCN(C)CC3)c(F)cc2c1=O (stereo unspecified),,"17.8 µM [rising, partial curve, poor fit]"
O=C1OC(c2ccccc2)=NC12CC2c1ccc(Cl)cc1 (stereo unspecified),"29.1 µM [falling, single point]",
CCOc1ncccc1C(=O)Nc1ccc(-c2ccc3nnc(C)n3n2)cc1,"0.794 µM [falling, partial curve, poor fit]",
CCC(C)NCC(O)(c1ccc(Cl)cc1)c1ccc(Cl)cc1 (stereo unspecified),"22.4 µM [falling, single point]",
CCOc1ccccc1N1CCN(C(=O)Nc2ccc(F)c(Cl)c2)CC1,"0.0326 µM [rising, full curve, poor fit]",
C=CCNc1nc(NCCO)nc(N2CCCC2)n1,"29.1 µM [rising, single point]","32.6 µM [falling, partial curve, poor fit]"
Cc1cc(NC(=O)OC2CCCCC2)ccc1[N+](=O)[O-],"35.5 µM [falling, single point]",
O=C(CCl)N1N=C(c2ccco2)CC1c1cccs1 (stereo unspecified),"5.8 µM [falling, partial curve, poor fit]",
Cn1c(SCC(=O)N2CCCCC2)nc2cccnc21,"10 µM [falling, partial curve, poor fit]",
COC(=O)c1ccc(NC(=O)CSC2=NCCN2)cc1,"32.6 µM [falling, partial curve, poor fit]",
COc1cccc(-c2nc(-c3ccc(Br)o3)no2)c1,"1.58 µM [rising, partial curve, poor fit]",

Structure (SMILES),AC50 [1],AC50 [2]
Cc1ccsc1C(=O)Nc1ccc2c(c1)OCCO2,"9.2 µM [falling, partial curve]",
CCc1c(-c2ccccc2)nc2ccccc2c1C(=O)NC(C)c1ccccc1 (stereo unspecified),"7.94 µM [falling, partial curve, poor fit]",
Cc1cccc(N2CC(C(=O)Nc3nnc(SCCC4OCCO4)s3)CC2=O)c1 (stereo unspecified),"0.398 µM [rising, full curve, poor fit]",
CCOc1ccc(NC(=O)CN(C)C(=O)C2COc3ccccc3O2)cc1OCC (stereo unspecified),"0.92 µM [rising, full curve, poor fit]",
Cc1cc(C)c2ccc3c(C)c(C)nc3c2[nH]1,"5.62 µM [rising, single point]",
Nc1c(N(CCC2=CCCCC2)C(=O)c2ccc([N+](=O)[O-])o2)c(=O)[nH]c(=O)n1Cc1ccccc1,"6.51 µM [falling, full curve]",
CC(=O)N1CCN(c2ccc(NC(=O)c3ccc4c(c3)OCCO4)cc2Cl)CC1,"35.5 µM [falling, single point]",
Cc1cccc(NS(=O)(=O)c2ccc(-c3cnc(C4CC4)o3)cc2)c1C,"3.16 µM [rising, partial curve]","7.08 µM [falling, partial curve]"
O=C(Nc1ccccn1)c1ccc2c(=O)n3c(nc2c1)CCCCC3,"20.6 µM [falling, partial curve, poor fit]",
O=C(Nc1cccc(S(=O)(=O)N2CCCCC2)c1)c1cccs1,"25.1 µM [falling, single point]",
FC(F)(F)c1cc(-c2ccccc2)nc(-n2cncn2)n1,"29.1 µM [rising, single point]",
O=c1c2[nH]c3ccccc3c2ncn1CCC1=CCCCC1,"0.631 µM [rising, full curve, poor fit]",
O=C(CSc1nc2ccccc2c(=O)[nH]1)Nc1ccc([N+](=O)[O-])cc1,"2.59 µM [rising, full curve]",
Cc1cc(C)n2nc(C(=O)OCC(=O)NNC(=O)c3ccccc3)nc2n1,"5.8 µM [rising, partial curve, poor fit]",
COc1ccc2c(c1)C1(C)CC(C)(C)N2C(=O)N1c1ccccc1 (stereo unspecified),"22.4 µM [falling, single point]",
Cc1cccc(C(=O)Nc2ccc(C(=O)N3CCCCC3C)cc2)c1 (stereo unspecified),"7.08 µM [falling, full curve, poor fit]",
Cc1ccc(OCC(=O)N/N=C/c2cccc3cccnc23)cc1,"11.2 µM [falling, single point]",
COc1ccc(C2=NS(=O)(=O)N(C)C(C(=O)Nc3ccc(C(C)=O)cc3)=C2)cc1OC,"35.5 µM [falling, single point]",
Cc1ccc(S(=O)(=O)Nc2cc(C)c(O)cc2C)cc1,"22.4 µM [falling, partial curve, poor fit]",
CS(=O)(=O)c1ccc(-n2c(=O)n(Cc3ccccc3)c(=O)c3[nH]cnc32)cc1,"12.6 µM [rising, partial curve, poor fit]",
CCC(CCC(=O)Nc1nncs1)C(=O)O (stereo unspecified),"23.1 µM [rising, single point]",
